The results in this text go back to article PMC11024517.

What all share (details): remark: other sources report otherwise
The target in experiment [1] is T1, 53BP1 (immunoprecipitates of unstressed cells), Q12888.
T1 chain: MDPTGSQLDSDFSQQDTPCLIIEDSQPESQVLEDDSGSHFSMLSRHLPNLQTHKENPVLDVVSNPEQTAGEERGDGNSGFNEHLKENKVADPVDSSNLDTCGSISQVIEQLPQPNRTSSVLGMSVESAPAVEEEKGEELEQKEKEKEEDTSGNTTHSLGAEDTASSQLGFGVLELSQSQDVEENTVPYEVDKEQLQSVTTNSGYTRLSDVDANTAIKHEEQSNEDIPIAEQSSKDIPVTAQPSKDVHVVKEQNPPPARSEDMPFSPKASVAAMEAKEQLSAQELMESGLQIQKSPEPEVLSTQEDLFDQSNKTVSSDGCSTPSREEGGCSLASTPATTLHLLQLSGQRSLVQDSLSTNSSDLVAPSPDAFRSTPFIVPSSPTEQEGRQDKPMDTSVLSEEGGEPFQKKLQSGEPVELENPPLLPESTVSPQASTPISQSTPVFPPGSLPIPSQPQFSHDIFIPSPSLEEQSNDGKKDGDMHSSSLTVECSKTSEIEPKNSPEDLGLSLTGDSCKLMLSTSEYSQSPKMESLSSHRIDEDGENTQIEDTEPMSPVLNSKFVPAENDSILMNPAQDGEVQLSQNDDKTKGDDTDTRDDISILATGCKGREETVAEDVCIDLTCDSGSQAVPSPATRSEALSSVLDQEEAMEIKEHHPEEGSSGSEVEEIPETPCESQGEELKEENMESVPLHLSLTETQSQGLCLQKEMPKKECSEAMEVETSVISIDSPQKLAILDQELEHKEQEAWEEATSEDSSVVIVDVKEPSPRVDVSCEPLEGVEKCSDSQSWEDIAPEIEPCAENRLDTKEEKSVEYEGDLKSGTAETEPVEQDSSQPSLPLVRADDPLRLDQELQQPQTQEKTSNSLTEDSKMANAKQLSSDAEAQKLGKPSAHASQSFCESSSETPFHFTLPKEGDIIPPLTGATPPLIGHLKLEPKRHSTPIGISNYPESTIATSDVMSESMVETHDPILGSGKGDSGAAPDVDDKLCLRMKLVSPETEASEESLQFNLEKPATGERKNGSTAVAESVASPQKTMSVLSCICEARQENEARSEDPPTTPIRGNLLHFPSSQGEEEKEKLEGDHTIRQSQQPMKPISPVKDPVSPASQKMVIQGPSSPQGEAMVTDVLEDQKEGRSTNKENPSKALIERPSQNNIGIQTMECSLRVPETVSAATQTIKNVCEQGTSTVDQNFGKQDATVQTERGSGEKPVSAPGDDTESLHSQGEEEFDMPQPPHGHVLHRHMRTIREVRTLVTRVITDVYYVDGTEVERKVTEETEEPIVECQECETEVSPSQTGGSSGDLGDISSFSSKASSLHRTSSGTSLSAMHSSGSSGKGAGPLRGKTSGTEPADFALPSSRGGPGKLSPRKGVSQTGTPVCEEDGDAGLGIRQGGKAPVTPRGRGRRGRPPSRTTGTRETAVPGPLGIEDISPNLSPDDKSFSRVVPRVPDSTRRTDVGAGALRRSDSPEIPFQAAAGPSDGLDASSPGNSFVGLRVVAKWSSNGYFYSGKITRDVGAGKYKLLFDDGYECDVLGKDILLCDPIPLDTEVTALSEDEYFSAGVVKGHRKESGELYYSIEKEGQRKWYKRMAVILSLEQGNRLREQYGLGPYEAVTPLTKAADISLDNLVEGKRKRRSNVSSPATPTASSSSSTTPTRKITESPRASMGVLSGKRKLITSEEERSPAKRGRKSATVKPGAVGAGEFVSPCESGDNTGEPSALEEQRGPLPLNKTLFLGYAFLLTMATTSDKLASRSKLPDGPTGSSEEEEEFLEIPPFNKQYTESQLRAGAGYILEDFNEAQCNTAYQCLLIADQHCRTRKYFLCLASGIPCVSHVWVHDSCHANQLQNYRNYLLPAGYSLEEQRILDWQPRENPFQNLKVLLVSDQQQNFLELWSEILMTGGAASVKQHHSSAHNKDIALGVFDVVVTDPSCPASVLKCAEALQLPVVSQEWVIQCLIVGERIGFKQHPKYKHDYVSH
The experiment can be described thus: co-IP; follow-up immunoprecipitation assays in unstressed cells.

The target of experiment [2] is T2, 53BP1 (human (endogenous in HLF)), Q12888.
T2 chain: T1 chain
The experiment can be described thus: proximity ligation; PLA with antibodies against 53BP1 and HA-tag in HLF USP28-KO/WT/M cells, treated with DMSO or etoposide (5 uM, 30 min).

Experiment [3] deals with T2, 53BP1 (human (endogenous in HLF)), …. The experiment can be described thus: co-IP; immunoprecipitation with antibodies against 53BP1 or control IgG from HLF cells expressing wildtype (WT) or monomeric (M) USP28.

Results are given in words; binding and its absence hold for the method and conditions named. In cells and extracts the contact can be indirect. Some binding calls cover weakened binding; strength is not graded here. For part of these data: Tags and fused reporters may be left off the sequences shown.

B1: USP28 (immunoprecipitates of unstressed cells), Q96RU2 1-1077 (enzyme)
chain: MTAELQQDDAAGAADGHGSSCQMLLNQLREITGIQDPSFLHEALKASNGDITQAVSLLTDERVKEPSQDTVATEPSEVEGSAANKEVLAKVIDLTHDNKDDLQAAIALSLLESPKIQADGRDLNRMHEATSAETKRSKRKRCEVWGENPNPNDWRRVDGWPVGLKNVGNTCWFSAVIQSLFQLPEFRRLVLSYSLPQNVLENCRSHTEKRNIMFMQELQYLFALMMGSNRKFVDPSAALDLLKGAFRSSEEQQQDVSEFTHKLLDWLEDAFQLAVNVNSPRNKSENPMVQLFYGTFLTEGVREGKPFCNNETFGQYPLQVNGYRNLDECLEGAMVEGDVELLPSDHSVKYGQERWFTKLPPVLTFELSRFEFNQSLGQPEKIHNKLEFPQIIYMDRYMYRSKELIRNKRECIRKLKEEIKILQQKLERYVKYGSGPARFPLPDMLKYVIEFASTKPASESCPPESDTHMTLPLSSVHCSVSDQTSKESTSTESSSQDVESTFSSPEDSLPKSKPLTSSRSSMEMPSQPAPRTVTDEEINFVKTCLQRWRSEIEQDIQDLKTCIASTTQTIEQMYCDPLLRQVPYRLHAVLVHEGQANAGHYWAYIYNQPRQSWLKYNDISVTESSWEEVERDSYGGLRNVSAYCLMYINDKLPYFNAEAAPTESDQMSEVEALSVELKHYIQEDNWRFEQEVEEWEEEQSCKIPQMESSTNSSSQDYSTSQEPSVASSHGVRCLSSEHAVIVKEQTAQAIANTARAYEKSGVEAALSEVMLSPAMQGVILAIAKARQTFDRDGSEAGLIKAFHEEYSRLYQLAKETPTSHSDPRLQHVLVYFFQNEAPKRVVERTLLEQFADKNLSYDERSISIMKVAQAKLKEIGPDDMNMEEYKKWHEDYSLFRKVSVYLLTGLELYQKGKYQEALSYLVYAYQSNAALLMKGPRRGVKESVIALYRRKCLLELNAKAASLFETNDDHSVTEGINVMNELIIPCIHLIINNDISKDDLDAIEVMRNHWCSYLGQDIAENLQLCLGEFLPRLLDPSAEIIVLKEPPTIRPNSPYDLCSRFAAVMESIQGVSTVTVK
In the case of B1, in experiment [1], the binding result is given as “binds”.

B2: HA-tagged wildtype USP28 (USP28-WT), Q96RU2 1-1077 (enzyme)
chain: B1 chain
In the case of B2, the binding entry in experiment [2] and in experiment [3] was “binds” throughout.
